Changes are numbered by the printed parent chain. Results are given in words; binding and its absence hold for the method and conditions named. For part of these data: Binding seen in cells or lysates may run through a third protein. Sequences can lack the tags named with a protein. Some entries that bind do so weakly or less than the wild type.

These results are taken from doi:10.1101/209643 (bioRxiv, 2017).

Test [1] addresses T1, 6XHIS-tagged Cdc12 (S. cerevisiae) (UniProt P32468).
T1 sequence: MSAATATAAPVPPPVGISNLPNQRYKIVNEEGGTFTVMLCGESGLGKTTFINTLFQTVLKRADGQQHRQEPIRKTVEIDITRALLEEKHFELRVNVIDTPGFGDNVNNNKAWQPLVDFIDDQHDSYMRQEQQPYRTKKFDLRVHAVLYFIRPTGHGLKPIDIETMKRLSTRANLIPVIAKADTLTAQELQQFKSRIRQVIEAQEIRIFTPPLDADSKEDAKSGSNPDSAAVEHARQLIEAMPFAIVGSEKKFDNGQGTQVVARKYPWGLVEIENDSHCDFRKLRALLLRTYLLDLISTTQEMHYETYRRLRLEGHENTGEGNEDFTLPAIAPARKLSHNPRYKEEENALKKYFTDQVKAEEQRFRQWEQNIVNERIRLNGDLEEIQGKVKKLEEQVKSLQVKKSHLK
Briefly: co-purification of co-expressed proteins.

In test [2] the target is T2, 6XHIS-tagged Cdc12 T75A (S. cerevisiae) (UniProt P32468).
T2 sequence: T1 sequence with T75A
Nature of the test: co-purification of co-expressed proteins.

In test [3] the target is T3, Cdc11-GFP (yeast extract) (S. cerevisiae), P32458.
T3 chain: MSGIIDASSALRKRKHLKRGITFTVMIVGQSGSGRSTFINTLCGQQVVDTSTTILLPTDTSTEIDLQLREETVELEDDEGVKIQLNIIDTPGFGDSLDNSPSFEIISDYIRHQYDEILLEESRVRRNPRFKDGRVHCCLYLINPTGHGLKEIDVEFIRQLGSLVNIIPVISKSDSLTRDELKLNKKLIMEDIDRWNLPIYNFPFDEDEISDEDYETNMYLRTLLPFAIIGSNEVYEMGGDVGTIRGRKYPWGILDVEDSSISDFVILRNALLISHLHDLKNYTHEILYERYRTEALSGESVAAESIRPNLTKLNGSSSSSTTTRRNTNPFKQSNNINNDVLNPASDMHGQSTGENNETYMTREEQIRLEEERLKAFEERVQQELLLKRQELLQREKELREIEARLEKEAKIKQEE
Nature of the test: single molecule pull-down. To be noted: remark: other sources report otherwise.

B1: Cdc10 (protein, UniProt P25342 1-322)
chain: MDPLSSVQPASYVGFDTITNQIEHRLLKKGFQFNIMVVGQSGLGKSTLINTLFASHLIDSATGDDISALPVTKTTEMKISTHTLVEDRVRLNINVIDTPGFGDFIDNSKAWEPIVKYIKEQHSQYLRKELTAQRERFITDTRVHAILYFLQPNGKELSRLDVEALKRLTEIANVIPVIGKSDTLTLDERTEFRELIQNEFEKYNFKIYPYDSEELTDEELELNRSVRSIIPFAVVGSENEIEINGETFRGRKTRWSAINVEDINQCDFVYLREFLIRTHLQDLIETTSYIHYEGFRARQLIALKENANSRSSAHMSSNAIQR
Regarding B1, the binding result in test [1] and in test [2] was “binds” throughout.

B2: Cdc3 (protein, UniProt P32457 1-520)
chain: MSLKEEQVSIKQDPEQEERQHDQFNDVQIKQESQDHDGVDSQYTNGTQNDDSERFEAAESDVKVEPGLGMGITSSQSEKGQVLPDQPEIKFIRRQINGYVGFANLPKQWHRRSIKNGFSFNLLCVGPDGIGKTTLMKTLFNNDDIEANLVKDYEEELANDQEEEEGQGEGHENQSQEQRHKVKIKSYESVIEENGVKLNLNVIDTEGFGDFLNNDQKSWDPIIKEIDSRFDQYLDAENKINRHSINDKRIHACLYFIEPTGHYLKPLDLKFMQSVYEKCNLIPVIAKSDILTDEEILSFKKTIMNQLIQSNIELFKPPIYSNDDAENSHLSERLFSSLPYAVIGSNDIVENYSGNQVRGRSYPWGVIEVDNDNHSDFNLLKNLLIKQFMEELKERTSKILYENYRSSKLAKLGIKQDNSVFKEFDPISKQQEEKTLHEAKLAKLEIEMKTVFQQKVSEKEKKLQKSETELFARHKEMKEKLTKQLKALEDKKKQLELSINSASPNVNHSPVPTKKKGFLR
With B2, the binding result in test [1] and in test [2] was “binds” in each case.

B3: Shs1-GFP (protein, UniProt Q07657 1-551)
chain: MSTASTPPINLFRRKKEHKRGITYTMLLCGPAGTGKTAFANNLLETKIFPHKYQYGKSNASISSNPEVKVIAPTKVVSFNSKNGIPSYVSEFDPMRANLEPGITITSTSLELGGNKDQGKPEMNEDDTVFFNLIMTHGIGENLDDSLCSEEVMSYLEQQFDIVLAEETRIKRNPRFEDTRVHVALYFIEPTGHGLREVDVELMKSISKYTNVLPIITRADSFTKEELTQFRKNIMFDVERYNVPIYKFEVDPEDDDLESMEENQALASLQPFAIITSDTRDSEGRYVREYPWGIISIDDDKISDLKVLKNVLFGSHLQEFKDTTQNLLYENYRSEKLSSVANAEEIGPNSTKRQSNAPSLSNFASLISTGQFNSSQTLANNLRADTPRNQVSGNFKENEYEDNGEHDSAENEQEMSPVRQLGREIKQENENLIRSIKTESSPKFLNSPDLPERTKLRNISETVPYVLRHERILARQQKLEELEAQSAKELQKRIQELERKAHELKLREKLINQNKLNGSSSSINSLQQSTRSQIKKNDTYTDLASIASGRD
As for B3, in test [1], the binding result was “binds”.

B4: Shs1-mCherry (yeast extract), Q07657 1-551 (protein)
chain: B3 chain
In the case of B4, in test [3], the binding entry is reported as “no binding”.
